Laboratory results: paper PMC7450052
These are yes or no findings as the source states them, for the method shown. Binding seen in cells or lysates may run through a third protein. Some entries that bind do so weakly or less than the wild type.

Chains of the proteins cited; added tags and fusions are not shown.
UniProt P84022: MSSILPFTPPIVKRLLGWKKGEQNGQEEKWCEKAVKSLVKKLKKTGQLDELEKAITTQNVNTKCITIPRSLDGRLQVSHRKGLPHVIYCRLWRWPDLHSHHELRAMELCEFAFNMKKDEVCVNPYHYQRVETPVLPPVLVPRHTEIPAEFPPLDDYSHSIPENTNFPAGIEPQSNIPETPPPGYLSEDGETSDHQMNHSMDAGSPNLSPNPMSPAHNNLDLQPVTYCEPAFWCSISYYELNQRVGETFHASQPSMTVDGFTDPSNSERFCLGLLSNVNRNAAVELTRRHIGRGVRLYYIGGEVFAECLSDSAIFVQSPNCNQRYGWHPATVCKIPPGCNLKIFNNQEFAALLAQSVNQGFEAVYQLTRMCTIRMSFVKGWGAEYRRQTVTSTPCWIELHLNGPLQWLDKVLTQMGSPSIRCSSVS
UniProt Q15796: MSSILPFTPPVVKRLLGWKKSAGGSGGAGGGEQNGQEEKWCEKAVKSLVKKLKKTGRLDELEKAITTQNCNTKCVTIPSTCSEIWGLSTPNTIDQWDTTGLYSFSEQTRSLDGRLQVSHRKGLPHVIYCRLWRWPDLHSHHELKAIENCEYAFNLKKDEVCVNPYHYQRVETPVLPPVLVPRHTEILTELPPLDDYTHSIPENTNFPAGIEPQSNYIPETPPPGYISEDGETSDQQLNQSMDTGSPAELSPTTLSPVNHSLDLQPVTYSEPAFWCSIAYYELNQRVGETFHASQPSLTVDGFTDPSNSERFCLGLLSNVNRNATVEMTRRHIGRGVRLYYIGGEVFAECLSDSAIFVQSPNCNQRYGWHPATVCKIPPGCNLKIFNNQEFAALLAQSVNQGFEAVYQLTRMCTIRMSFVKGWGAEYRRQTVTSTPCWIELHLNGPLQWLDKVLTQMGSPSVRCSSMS
UniProt Q13485: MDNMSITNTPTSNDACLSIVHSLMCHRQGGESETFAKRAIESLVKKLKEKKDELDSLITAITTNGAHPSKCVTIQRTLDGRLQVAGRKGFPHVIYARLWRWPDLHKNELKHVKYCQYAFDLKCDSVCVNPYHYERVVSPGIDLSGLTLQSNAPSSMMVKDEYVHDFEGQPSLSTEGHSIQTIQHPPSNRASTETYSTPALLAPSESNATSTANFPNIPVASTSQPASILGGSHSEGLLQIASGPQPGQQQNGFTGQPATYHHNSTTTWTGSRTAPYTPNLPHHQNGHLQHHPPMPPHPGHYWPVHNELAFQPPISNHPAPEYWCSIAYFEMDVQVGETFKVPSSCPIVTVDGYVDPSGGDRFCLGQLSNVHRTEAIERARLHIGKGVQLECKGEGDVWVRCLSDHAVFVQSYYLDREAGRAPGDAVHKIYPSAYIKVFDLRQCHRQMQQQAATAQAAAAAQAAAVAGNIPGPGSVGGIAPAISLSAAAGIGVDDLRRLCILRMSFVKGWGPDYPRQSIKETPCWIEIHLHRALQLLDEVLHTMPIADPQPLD
UniProt P51608: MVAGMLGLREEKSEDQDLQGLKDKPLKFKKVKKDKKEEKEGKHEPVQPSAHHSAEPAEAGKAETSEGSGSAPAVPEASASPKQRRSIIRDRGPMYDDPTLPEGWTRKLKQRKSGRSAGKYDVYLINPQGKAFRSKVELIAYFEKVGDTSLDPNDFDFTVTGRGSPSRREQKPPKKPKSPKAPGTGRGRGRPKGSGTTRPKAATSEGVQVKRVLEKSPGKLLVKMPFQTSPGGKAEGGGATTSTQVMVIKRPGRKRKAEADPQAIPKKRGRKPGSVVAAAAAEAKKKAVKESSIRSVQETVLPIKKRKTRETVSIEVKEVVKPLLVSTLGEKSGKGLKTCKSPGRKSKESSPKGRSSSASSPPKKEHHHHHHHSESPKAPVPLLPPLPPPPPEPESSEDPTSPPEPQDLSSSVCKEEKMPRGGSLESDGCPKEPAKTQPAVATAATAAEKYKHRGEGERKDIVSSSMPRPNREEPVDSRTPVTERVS

What was measured:
Experiment in all cases: co-IP; 293T cell lysate in co-IP buffer (10 mM HEPES pH 8.0, 300 mM NaCl, 0.1 mM EDTA, 20% glycerol, 0.2% NP-40, protease and phosphatase inhibitors); pre-cleared; IP with the indicated first antibodies at 4 °C overnight; Protein A/G beads; western blotting
[1] = target: Smad3 (human (in 293T cells; endogenous or transfected not stated)) (UniProt P84022)
[2] = target: Smad2 (human (in 293T cells; endogenous or transfected not stated)) (UniProt Q15796)
[3] = target: Smad4 (human (in 293T cells; endogenous or transfected not stated)) (UniProt Q13485)

Measured: binding

Methyl-CpG-binding protein 2 (from UniProt P51608 1-486)
binds: [1] | [2] | [3]
